# For some of these results: At least one compound was matched to its structure with a doubt left. Some entries share one result that the patent states for a list of compounds.
# Legend:
# LNCaP cells = assay: Western blot analysis and DNA fragmentation assay in LNCaP cells; format: cell-based, human; settings: 2.5 μM β-CDODA-Me, 24 hr
# Description: Cell Proliferation and DNA Fragmentation Assays: LNCaP prostate cancer cells (2×10^4 per well) were added to 12-well plates and allowed to attach for 24 hr. The medium was then changed to DMEM/Ham's F-12 media containing 2.5% charcoal-stripped FBS, and either vehicle (DMSO) or the indicated C-DIMs were added. Fresh medium and indicated compounds were added every 48 hr, and cells were then trypsinized and counted after 2, 4, and 6 days using a Coulter Z1 cell counter (Beckman Coulter, Fullerton, Calif.). Each experiment was done in triplicate, and results are expressed as means±S.E. for each set of three experiments. The DNA fragmentation assay was performed using a BioVision Apoptotic DNA ladder extraction kit (BioVision, Mountain View, Calif.) according to the manufacturer's protocol.
# Western Blot Analysis: Cells were seeded in DMEM:Ham's F-12 media containing 2.5% charcoal-stripped FBS for 24 hr and then treated with either the vehicle (DMSO) or the indicated compounds. […]
# [1] = system: Panc28 pancreatic cancer cells; assay: Growth inhibition in Panc28 pancreatic cancer cells; format: cell-based; settings: SW480 and Panc28 cytotoxicity comparison
Compound,effect of kinase inhibitor on induction of ATF-3 by β-CDODA-Me (LNCaP cells),effect of kinase inhibitor on induction of NAG-1 by β-CDODA-Me (LNCaP cells),times less toxic than the α- and β-CDODA-Me isomers [1]
"O=c1cc(N2CCOCC2)oc2c(-c3ccccc3)cccc12 [LY294002, reference compound]",blocked induction,inhibited induction,
"CC1(C)C(=O)C(C#N)=C[C@]2(C)[C@H]3C(=O)C=C4[C@H]5C[C@@](C)(C(=O)O)CC[C@]5(C)CC[C@@]4(C)[C@]3(C)CC[C@@H]12 [α-CDODA, 2-cyano-3,11-dioxo-18α-oleana-1,12-dien-30-oic acid]",,,4-20 times
"CC1(C)C(=O)C(C#N)=C[C@]2(C)[C@H]3C(=O)C=C4[C@@H]5C[C@@](C)(C(=O)O)CC[C@]5(C)CC[C@@]4(C)[C@]3(C)CC[C@@H]12 [β-CDODA, 2-cyano-3,11-dioxo-18β-oleana-1,12-dien-30-oic acid]",,,4-20 times
